This note sets out measurements from paper PMC6559791.

These are yes or no findings as the source states them, for the method shown. Binding seen in cells or lysates may run through a third protein. Binding calls can cover weak binding; strength is not graded here. Where a sequence is shown, tags or fusion partners need not be part of it.

In the assay the target is DmBld10-GFP-FLAG-6xHis (Drosophila melanogaster). Put plainly: co-IP; S. pombe cell extracts (20 mM Hepes-NaOH pH 7.5, 50 mM KOAc, 200 mM NaCl, 1 mM EDTA, 0.2% Triton X-100); GFP/YFP-tagged protein precipitated with rabbit anti-GFP on Dynabeads Protein A, 3 h at 4°C; western blot.

B1: Pcp1-HA (protein, UniProt Q92351 1-1208)
chain: MSERDFNTQSPKFKDENANSVISQSDFLGKSLKNNNDDYSDFRGSYLNDKSSFQTPLRNGSYQPKGSLEFTPLLQSSNKNSDKYNGSLGDKGSFDPNSYGLSAISKQATQEALSISQGNDSYDVSKLTDLSKNSEIDHTDGELPANAALTLREQEKVLEKVSRENFGLRIKIVCLEKRLESMAPEQIKEAVKDNVELHAERANLQLQLKRTESLLQKSEDKNFKLEEKVDYLSKVNDVEQSQNVKVFTERIRFLENALEKVQREKDSLSTEMEEDKSNKEVDYEYEIRQLQNRLDELSEELDVAQDLLTEKEDEIATLKRQIEEKENSSSAFENEENSSYVHLQEDYAILQAKCDEFADRIQVLTADLEKEKENQIMHESEASIGLTDSMQVHTLQEQLHKANEEIEFLHDQISRMNEEGKNFEDIMLQFRSLEEERDVLESKLQTLEDDNNSLRLMTSSLGNQIESLRTQNREIDEEKNHLRLLASKNSDKALAETNIRLQEVTKELETLRMKNSNDLNEIHDLREENEGLTLKIDSITKEKDRLINELEQRIKSYEVNVSELNGTIDEYRNKLKDKEETYNEVMNAFQYKDNDLRRFHESINKLQDREKELTSNLEKKNLVISSLRETVAMLEKERESIKKYLSGNAKDLDNTNLMEILNDKISVLQRQLTDVKDELDVSEEEREEAIVAGQKLSASFELMSNEKQALELKYSSLKNELINAQNLLDRREEELSELSKKLFEERKIRSGSNDDIEKNKEINVLNSELADKLAQIRHLESDKMELDKLVHHLNRGIEEANIEENAVKKRLCLLMGCDYSSVSILQIVSQIEHFVNQQIQTIRSLKQELRHDFVQFSGKKEQELSRSFEKFGLGTETKHDILAQRNRNVSEKMNDLENAAQKFFSSPDRKNGYLYPSEHTSKIEYLEKTIEDLKLALQDELKNRNLLMDDISSYNKQTTKLQEKIKWLERERSILIDELESYRSNQFNYQNNLVQDKNELEERLKEIQKELEVYNNHFMKQAELMTSNVTDESQLMLKTLREALQSKTNNIDHLSTILERNRKEYKSLLDDYNQLRARYKNLQSNTPQSTQSGQYESEIKGLSKLTKYLQSKCRREHSLRLDLAFSKKFILMQLTGYETCNKINLRMLQKIGISPDPDLSKKHIKLKSLIIVVCSIERMKRMKNEWLKQAQLKQSLQRAAAKAKTANY
Regarding B1, the binding result is on record as “binds”.
